This passage reports binding results from PMC12700548.

The chains behind the UniProt entries cited, without tags or fusion partners. Where a name states a change or a piece, a line headed by the entry shows the natural chain unless it says otherwise. A line that says so, or that is headed by a name, gives the form on record, which may keep a tag or linker.
UniProt P16520: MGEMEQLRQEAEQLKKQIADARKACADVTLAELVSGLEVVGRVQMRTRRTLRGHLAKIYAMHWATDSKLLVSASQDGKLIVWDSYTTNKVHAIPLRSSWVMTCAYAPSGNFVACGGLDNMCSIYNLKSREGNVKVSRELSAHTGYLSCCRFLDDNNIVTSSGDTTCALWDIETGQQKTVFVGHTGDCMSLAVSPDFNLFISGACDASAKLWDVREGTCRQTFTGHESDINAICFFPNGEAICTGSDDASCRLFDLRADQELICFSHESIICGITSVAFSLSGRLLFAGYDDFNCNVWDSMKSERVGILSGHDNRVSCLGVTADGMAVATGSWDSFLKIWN
UniProt P50148: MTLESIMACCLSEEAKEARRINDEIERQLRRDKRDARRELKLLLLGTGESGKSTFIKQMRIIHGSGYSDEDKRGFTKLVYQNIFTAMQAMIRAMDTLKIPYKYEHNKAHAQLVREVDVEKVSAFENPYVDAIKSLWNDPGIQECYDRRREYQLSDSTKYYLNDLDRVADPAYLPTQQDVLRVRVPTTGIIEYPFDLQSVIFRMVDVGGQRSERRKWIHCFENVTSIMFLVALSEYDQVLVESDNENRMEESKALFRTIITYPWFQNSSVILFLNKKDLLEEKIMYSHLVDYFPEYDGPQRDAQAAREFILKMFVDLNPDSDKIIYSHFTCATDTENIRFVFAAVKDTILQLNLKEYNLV
GαsS-RLuc8 (TRUPATH biosensor) (P63092-2, form named): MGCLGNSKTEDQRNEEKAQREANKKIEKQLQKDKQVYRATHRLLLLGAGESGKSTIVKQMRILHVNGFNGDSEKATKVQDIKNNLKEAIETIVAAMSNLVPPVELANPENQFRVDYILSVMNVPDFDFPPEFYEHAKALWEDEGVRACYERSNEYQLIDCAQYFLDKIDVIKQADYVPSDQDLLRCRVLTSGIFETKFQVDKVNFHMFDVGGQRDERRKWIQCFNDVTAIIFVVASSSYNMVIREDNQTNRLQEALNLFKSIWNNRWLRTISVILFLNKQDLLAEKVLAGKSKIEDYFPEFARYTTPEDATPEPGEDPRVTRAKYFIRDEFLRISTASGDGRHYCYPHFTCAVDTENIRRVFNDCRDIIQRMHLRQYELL

Results are given in words; binding and its absence hold for the method and conditions named. In cells and extracts the contact can be indirect. Some entries that bind do so weakly or less than the wild type.

The target of the assay is Gβ3 / Gγ9-GFP (TRUPATH biosensor) (UniProt P16520). Description: FRET or BRET; TRUPATH G protein dissociation assay in HEK293T cells transfected with receptor (FLAG-β1AR, FLAG-β2AR or FLAG-AT1R), Gα-RLuc8, Gβ3 and Gγ9-GFP; pretreated with 0.19% DMSO or 30 μM C11, stimulated with agonist for 10 minutes at 37°C; BRET decays on receptor activation. In general terms: BRET reads energy transfer from a luciferase to a nearby fluorophore.

Turning to “Gαq-RLuc8 (TRUPATH biosensor) (from UniProt P50148 1-359)”, the binding result is listed as “binds”.
The same measure for “GαsS-RLuc8 (TRUPATH biosensor) (from UniProt P63092-2 1-380)”: “binds”.
